# Experimental data taken from PMC11073785, “YeeD is an essential partner for YeeE-mediated thiosulfate uptake in bacteria and regulates thiosulfate ion decomposition” (PLOS Biology, 2024).
# Amino acid sequences for entries named in this document (tags omitted). A change or cut given only in a name is not applied to a line headed by its entry.
# UniProt G0GAP6: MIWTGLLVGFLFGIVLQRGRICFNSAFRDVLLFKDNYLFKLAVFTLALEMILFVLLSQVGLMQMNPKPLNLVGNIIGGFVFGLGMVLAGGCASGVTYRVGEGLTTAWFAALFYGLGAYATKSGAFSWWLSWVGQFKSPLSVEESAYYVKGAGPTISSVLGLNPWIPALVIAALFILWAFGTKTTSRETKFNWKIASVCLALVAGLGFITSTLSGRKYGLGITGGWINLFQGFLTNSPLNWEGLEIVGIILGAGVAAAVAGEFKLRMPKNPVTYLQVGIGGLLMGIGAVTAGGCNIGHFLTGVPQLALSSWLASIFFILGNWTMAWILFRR
# Legend:
# [1] = target: StYeeD region of the StYeeE(C22A)-StYeeD fusion protein (Spirochaeta thermophila) (UniProt G0GAP7); assay: crystal structure; StYeeE(C22A) and StYeeD (or StYeeD(L45A)) joined on one chain by a 40-residue linker; lipidic cubic phase (monoolein), 20°C; X-ray, SPring-8 BL32XU; both purified
# [2] = target: StYeeD(L45A) region of the StYeeE(C22A)-StYeeD(L45A) fusion protein (Spirochaeta thermophila) (UniProt G0GAP7); assay: as above
substance,measurement,setting,value
StYeeE(C22A) region of the StYeeE(C22A)-StYeeD fusion proteins (from UniProt G0GAP6 1-330) (domain or fragment),binding,[1],binds
same,binding,[2],binds

# Results are given in words; binding and its absence hold for the method and conditions named. A result given as binding can be weak or reduced; the word gives no strength.
